Laboratory results: PubChem BioAssay AID1671195 (Yale University, 2021)

Purpose: 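Knockdowns that increase or decrease uptake of fluorescent LDL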 (primary screen)
System: human Huh7 hepatoma cells
Knock-down reagent: siRNA pool against human genes, 18 nM
Duration: about 2 to 2.5 days of knockdown, then 8 h LDL uptake
Conditions: DiI-labelled LDL at 30 µg/ml for 8 h, in lipoprotein-deficient serum medium
Detection: 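Fluorescent LDL signal imaged in cells, scaled to the plate median, robust z-score for each replicate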
Direction: robust z-score: higher = more LDL uptake after knockdown
Rule for the call: 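Active when two or more replicates show a robust z-score above 2 or below -2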
Here is one part, drawn at random, of about 22,000 reagents. About 1,510 of them (6.9%) were called active. 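Active includes knockdowns raising or lowering LDL uptake; positive z-scores mean more uptake, negative mean less.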

gene | PubChem SID | robust z-score, replicate 1 | robust z-score, replicate 2 | robust z-score, replicate 3 | Call
JAGN1 | SID442892745 | -0.248 | -0.112 | 0.747 | inactive
LOC100287740 | SID442899851 | -0.421 | -0.619 | -0.993 | inactive
INPPL1 | SID442892099 | -0.0698 | 0.655 | 0.0418 | inactive
RPL18A | SID442903500 | -1.32 | -1.59 | -1.03 | inactive
CABS1 | SID442889833 | 0.34 | 0.713 | 0.456 | inactive
SPICE1 | SID442889776 | 0.679 | 0.122 | 0.734 | inactive
DYNLT4 | SID442895588 | -0.0533 | -0.147 | -0.353 | inactive
NOXRED1 | SID442888841 | 0.733 | 0.482 | 0.742 | inactive
LOC400751 (retired record) | SID442883502 | 3.1 | 2.44 | 2.79 | active
PLEKHA6 | SID442890219 | 0.454 | -0.198 | 1.09 | inactive
CFAP92 | SID442885882 | 0.807 | 2.28 | 0.919 | inactive
TUBG1 | SID442900370 | -0.563 | -1.17 | -0.525 | inactive
CABP4 | SID442889341 | 0.824 | 0.351 | 0.549 | inactive
SRSF3 | SID442900628 | -1.02 | -0.991 | -0.341 | inactive
DISP1 | SID442897511 | -0.748 | -0.201 | -0.233 | inactive
BMF | SID442902767 | -0.575 | -1.76 | -1.1 | inactive
PRR23B | SID442900197 | -0.557 | -0.64 | -0.986 | inactive
CRKL | SID442894648 | -0.0291 | -0.00448 | -0.225 | inactive
LOC729902 | SID442897512 | -0.522 | -0.426 | -0.235 | inactive
METAP1 | SID442883705 | 2.43 | 2.73 | 2.12 | active
PPIP5K2 | SID442884680 | 1.74 | 1.57 | 2.67 | inactive
KLRC2 | SID442887818 | 0.53 | 0.626 | 1.35 | inactive
IFNA10 | SID442892975 | 0.00893 | -0.261 | 0.557 | inactive
BECN1 | SID442887987 | 1.18 | 0.295 | 0.931 | inactive
MTMR8 | SID442889688 | 0.573 | 0.519 | 0.475 | inactive
TNFSF15 | SID442898412 | 0.261 | -1.35 | -0.397 | inactive
LINC02875 | SID442901673 | -0.814 | -0.981 | -1.02 | inactive
PNMA8A | SID442897399 | -0.538 | 1.27 | -1.87 | inactive
CFAP157 | SID442889348 | 0.512 | 0.517 | 0.69 | inactive
GSTM1 | SID442893374 | -0.364 | 0.162 | 0.379 | inactive
SCAI | SID442893211 | 0.22 | 0.298 | -0.289 | inactive
PXDNL | SID442893370 | -0.307 | 0.0612 | 0.423 | inactive
ABAT | SID442893827 | -0.00346 | 0.345 | -0.322 | inactive
LINC02868 | SID442900208 | -0.887 | -0.693 | -0.608 | inactive
TENT4B | SID442902354 | -0.956 | -1.21 | -1 | inactive
SLC37A4 | SID442898085 | -0.696 | -0.471 | -0.212 | inactive
TCAF2 | SID442898480 | -0.404 | -0.63 | -0.476 | inactive
FAM27E5 | SID442888678 | 0.2 | 1.02 | 0.819 | inactive
FYTTD1 | SID442891878 | 0.925 | -0.227 | 0.00755 | inactive
GPX2 | SID442885714 | 1.6 | 1.63 | 0.957 | inactive
GNA14 | SID442900799 | -0.947 | -0.693 | -0.788 | inactive
SFXN5 | SID442900790 | -0.809 | -0.861 | -0.752 | inactive
ZC3H12A | SID442892763 | 0.176 | -0.229 | 0.434 | inactive
SHARPIN | SID442898869 | -0.813 | -0.763 | -0.0692 | inactive
MCTP1 | SID442894129 | -0.2 | 0.248 | -0.136 | inactive
CACNA1D | SID442888466 | 1.15 | 0.332 | 0.665 | inactive

Reformatted: entries from further up
SRSF3 [SID442900628] → robust z-score, replicate 1 = -1.02; robust z-score, replicate 2 = -0.991; robust z-score, replicate 3 = -0.341; Call = inactive
DISP1 [SID442897511] → robust z-score, replicate 1 = -0.748; robust z-score, replicate 2 = -0.201; robust z-score, replicate 3 = -0.233; Call = inactive
BMF [SID442902767] → robust z-score, replicate 1 = -0.575; robust z-score, replicate 2 = -1.76; robust z-score, replicate 3 = -1.1; Call = inactive
PRR23B [SID442900197] → robust z-score, replicate 1 = -0.557; robust z-score, replicate 2 = -0.64; robust z-score, replicate 3 = -0.986; Call = inactive
CRKL [SID442894648] → robust z-score, replicate 1 = -0.0291; robust z-score, replicate 2 = -0.00448; robust z-score, replicate 3 = -0.225; Call = inactive
LOC729902 [SID442897512] → robust z-score, replicate 1 = -0.522; robust z-score, replicate 2 = -0.426; robust z-score, replicate 3 = -0.235; Call = inactive
METAP1 [SID442883705] → robust z-score, replicate 1 = 2.43; robust z-score, replicate 2 = 2.73; robust z-score, replicate 3 = 2.12; Call = active
